Measured values published in publication doi:10.1101/2025.05.14.654103.

The chains behind the UniProt entries cited, without tags or fusion partners.
UniProt Q14653: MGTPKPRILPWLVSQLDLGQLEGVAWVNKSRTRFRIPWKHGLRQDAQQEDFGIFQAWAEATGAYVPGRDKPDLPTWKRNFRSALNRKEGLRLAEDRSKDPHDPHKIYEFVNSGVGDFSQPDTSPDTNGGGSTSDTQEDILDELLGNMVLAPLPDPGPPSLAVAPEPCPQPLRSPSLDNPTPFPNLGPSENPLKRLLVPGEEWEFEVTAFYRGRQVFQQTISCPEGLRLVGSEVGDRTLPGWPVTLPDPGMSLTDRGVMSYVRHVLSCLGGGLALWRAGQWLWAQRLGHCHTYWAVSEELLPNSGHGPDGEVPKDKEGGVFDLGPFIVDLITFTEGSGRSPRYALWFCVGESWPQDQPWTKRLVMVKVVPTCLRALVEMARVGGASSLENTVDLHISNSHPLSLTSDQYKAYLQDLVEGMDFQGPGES
UniProt P51114: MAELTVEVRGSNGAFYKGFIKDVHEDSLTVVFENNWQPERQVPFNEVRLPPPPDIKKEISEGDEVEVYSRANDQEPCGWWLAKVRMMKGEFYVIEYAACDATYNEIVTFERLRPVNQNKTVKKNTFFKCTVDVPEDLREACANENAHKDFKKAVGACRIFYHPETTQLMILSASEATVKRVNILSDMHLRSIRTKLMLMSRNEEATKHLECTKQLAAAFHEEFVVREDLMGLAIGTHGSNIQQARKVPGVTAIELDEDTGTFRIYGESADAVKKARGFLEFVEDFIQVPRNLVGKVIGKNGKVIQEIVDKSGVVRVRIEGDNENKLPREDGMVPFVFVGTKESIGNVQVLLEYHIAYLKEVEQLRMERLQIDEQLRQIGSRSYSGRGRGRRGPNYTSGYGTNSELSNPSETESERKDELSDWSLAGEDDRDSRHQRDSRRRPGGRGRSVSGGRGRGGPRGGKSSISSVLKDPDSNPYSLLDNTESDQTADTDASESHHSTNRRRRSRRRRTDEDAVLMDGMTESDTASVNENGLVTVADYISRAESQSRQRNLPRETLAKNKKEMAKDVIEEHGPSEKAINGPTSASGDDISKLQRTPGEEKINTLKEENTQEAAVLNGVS
UniProt P28340: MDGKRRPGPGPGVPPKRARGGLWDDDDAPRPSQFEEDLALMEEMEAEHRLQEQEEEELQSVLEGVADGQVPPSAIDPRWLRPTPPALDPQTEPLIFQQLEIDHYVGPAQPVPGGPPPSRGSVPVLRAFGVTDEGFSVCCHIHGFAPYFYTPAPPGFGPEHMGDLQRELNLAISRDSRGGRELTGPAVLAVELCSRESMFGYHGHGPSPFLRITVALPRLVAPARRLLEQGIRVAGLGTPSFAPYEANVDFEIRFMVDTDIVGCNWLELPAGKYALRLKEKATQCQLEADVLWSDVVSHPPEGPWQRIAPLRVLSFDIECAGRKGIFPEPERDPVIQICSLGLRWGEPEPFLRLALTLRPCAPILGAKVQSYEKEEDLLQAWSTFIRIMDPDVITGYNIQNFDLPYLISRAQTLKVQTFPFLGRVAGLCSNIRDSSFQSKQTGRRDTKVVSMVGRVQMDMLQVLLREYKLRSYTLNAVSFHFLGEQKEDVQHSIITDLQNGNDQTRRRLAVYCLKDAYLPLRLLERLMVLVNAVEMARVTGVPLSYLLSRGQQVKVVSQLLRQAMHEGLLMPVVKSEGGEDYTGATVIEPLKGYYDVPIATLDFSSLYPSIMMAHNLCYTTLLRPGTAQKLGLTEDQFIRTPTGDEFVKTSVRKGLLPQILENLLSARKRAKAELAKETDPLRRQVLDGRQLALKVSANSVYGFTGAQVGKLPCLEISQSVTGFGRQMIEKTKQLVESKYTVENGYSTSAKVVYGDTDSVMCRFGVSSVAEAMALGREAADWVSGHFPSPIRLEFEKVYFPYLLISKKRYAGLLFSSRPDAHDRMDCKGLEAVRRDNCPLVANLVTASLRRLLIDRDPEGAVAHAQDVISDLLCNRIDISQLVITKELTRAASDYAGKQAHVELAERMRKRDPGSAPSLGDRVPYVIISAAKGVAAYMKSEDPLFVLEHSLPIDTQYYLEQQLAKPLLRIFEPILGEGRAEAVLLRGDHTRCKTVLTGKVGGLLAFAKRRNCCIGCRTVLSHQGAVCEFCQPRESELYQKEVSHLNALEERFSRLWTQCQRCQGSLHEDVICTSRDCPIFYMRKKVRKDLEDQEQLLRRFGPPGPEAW
UniProt Q15717: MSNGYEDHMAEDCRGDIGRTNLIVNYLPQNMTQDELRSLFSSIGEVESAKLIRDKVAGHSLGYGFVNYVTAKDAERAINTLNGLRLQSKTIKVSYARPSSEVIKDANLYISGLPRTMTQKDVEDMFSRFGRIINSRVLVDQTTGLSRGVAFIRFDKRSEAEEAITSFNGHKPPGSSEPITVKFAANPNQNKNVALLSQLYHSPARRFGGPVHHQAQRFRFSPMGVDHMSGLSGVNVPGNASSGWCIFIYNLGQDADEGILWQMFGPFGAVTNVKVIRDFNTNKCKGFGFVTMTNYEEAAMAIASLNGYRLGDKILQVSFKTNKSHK

B1: G3BP2 (protein, UniProt Q9UN86 1-482)
chain: MVMEKPSPLLVGREFVRQYYTLLNKAPEYLHRFYGRNSSYVHGGVDASGKPQEAVYGQNDIHHKVLSLNFSECHTKIRHVDAHATLSDGVVVQVMGLLSNSGQPERKFMQTFVLAPEGSVPNKFYVHNDMFRYEDEVFGDSEPELDEESEDEVEEEQEERQPSPEPVQENANSGYYEAHPVTNGIEEPLEESSHEPEPEPESETKTEELKPQVEEKNLEELEEKSTTPPPAEPVSLPQEPPKAFSWASVTSKNLPPSGTVSSSGIPPHVKAPVSQPRVEAKPEVQSQPPRVREQRPRERPGFPPRGPRPGRGDMEQNDSDNRRIIRYPDSHQLFVGNLPHDIDENELKEFFMSFGNVVELRINTKGVGGKLPNFGFVVFDDSEPVQRILIAKPIMFRGEVRLNVEEKKTRAARERETRGGGDDRRDIRRNDRGPGGPRGIVGGGMMRDRDGRGPPPRGGMAQKLGSGRGTGQMEGRFTGQRR
B2: eukaryotic translation initiation factor 2A (protein, UniProt Q9BY44 1-585)
chain: MAPSTPLLTVRGSEGLYMVNGPPHFTESTVFPRESGKNCKVCIFSKDGTLFAWGNGEKVNIISVTNKGLLHSFDLLKAVCLEFSPKNTVLATWQPYTTSKDGTAGIPNLQLYDVKTGTCLKSFIQKKMQNWCPSWSEDETLCARNVNNEVHFFENNNFNTIANKLHLQKINDFVLSPGPQPYKVAVYVPGSKGAPSFVRLYQYPNFAGPHAALANKSFFKADKVTMLWNKKATAVLVIASTDVDKTGASYYGEQTLHYIATNGESAVVQLPKNGPIYDVVWNSSSTEFCAVYGFMPAKATIFNLKCDPVFDFGTGPRNAAYYSPHGHILVLAGFGNLRGQMEVWDVKNYKLISKPVASDSTYFAWCPDGEHILTATCAPRLRVNNGYKIWHYTGSILHKYDVPSNAELWQVSWQPFLDGIFPAKTITYQAVPSEVPNEEPKVATAYRPPALRNKPITNSKLHEEEPPQNMKPQSGNDKPLSKTALKNQRKHEAKKAAKQEARSDKSPDLAPTPAPQSTPRNTVSQSISGDPEIDKKIKNLKKKLKAIEQLKEQAATGKQLEKNQLEKIQKETALLQELEDLELGI

molecular target: interferon regulatory factor 3 (human (endogenous in LX2)) (UniProt Q14653); assay: affinity purification with mass spectrometry

binding, binds:
Fragile X-related protein 1 (from UniProt P51114 1-621)
DNA polymerase delta catalytic subunit (from UniProt P28340 1-1107)
ELAV like RNA binding protein 1 (from UniProt Q15717 1-326)
B1
B2

These are yes or no findings as the source states them, for the method shown. Binding seen in cells or lysates may run through a third protein. These calls come from enrichment with a bait or labelling near it, and not all partners need be listed.
